# Percent effect of library compounds

Chains of the proteins cited; added tags and fusions are not shown. Residues count along the entry.
UniProt P9WNZ1, whole entry: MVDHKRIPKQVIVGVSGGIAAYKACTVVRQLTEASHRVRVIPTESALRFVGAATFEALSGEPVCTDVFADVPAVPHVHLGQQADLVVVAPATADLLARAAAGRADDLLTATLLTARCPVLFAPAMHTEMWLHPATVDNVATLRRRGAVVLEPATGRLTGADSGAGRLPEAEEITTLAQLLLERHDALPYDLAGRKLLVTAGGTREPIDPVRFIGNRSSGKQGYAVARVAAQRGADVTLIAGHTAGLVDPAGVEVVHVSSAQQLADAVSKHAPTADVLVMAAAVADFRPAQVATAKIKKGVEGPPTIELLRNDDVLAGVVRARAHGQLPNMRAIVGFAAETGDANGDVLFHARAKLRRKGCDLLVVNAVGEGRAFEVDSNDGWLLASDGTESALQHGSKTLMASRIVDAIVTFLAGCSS
UniProt I6X8D2, whole entry: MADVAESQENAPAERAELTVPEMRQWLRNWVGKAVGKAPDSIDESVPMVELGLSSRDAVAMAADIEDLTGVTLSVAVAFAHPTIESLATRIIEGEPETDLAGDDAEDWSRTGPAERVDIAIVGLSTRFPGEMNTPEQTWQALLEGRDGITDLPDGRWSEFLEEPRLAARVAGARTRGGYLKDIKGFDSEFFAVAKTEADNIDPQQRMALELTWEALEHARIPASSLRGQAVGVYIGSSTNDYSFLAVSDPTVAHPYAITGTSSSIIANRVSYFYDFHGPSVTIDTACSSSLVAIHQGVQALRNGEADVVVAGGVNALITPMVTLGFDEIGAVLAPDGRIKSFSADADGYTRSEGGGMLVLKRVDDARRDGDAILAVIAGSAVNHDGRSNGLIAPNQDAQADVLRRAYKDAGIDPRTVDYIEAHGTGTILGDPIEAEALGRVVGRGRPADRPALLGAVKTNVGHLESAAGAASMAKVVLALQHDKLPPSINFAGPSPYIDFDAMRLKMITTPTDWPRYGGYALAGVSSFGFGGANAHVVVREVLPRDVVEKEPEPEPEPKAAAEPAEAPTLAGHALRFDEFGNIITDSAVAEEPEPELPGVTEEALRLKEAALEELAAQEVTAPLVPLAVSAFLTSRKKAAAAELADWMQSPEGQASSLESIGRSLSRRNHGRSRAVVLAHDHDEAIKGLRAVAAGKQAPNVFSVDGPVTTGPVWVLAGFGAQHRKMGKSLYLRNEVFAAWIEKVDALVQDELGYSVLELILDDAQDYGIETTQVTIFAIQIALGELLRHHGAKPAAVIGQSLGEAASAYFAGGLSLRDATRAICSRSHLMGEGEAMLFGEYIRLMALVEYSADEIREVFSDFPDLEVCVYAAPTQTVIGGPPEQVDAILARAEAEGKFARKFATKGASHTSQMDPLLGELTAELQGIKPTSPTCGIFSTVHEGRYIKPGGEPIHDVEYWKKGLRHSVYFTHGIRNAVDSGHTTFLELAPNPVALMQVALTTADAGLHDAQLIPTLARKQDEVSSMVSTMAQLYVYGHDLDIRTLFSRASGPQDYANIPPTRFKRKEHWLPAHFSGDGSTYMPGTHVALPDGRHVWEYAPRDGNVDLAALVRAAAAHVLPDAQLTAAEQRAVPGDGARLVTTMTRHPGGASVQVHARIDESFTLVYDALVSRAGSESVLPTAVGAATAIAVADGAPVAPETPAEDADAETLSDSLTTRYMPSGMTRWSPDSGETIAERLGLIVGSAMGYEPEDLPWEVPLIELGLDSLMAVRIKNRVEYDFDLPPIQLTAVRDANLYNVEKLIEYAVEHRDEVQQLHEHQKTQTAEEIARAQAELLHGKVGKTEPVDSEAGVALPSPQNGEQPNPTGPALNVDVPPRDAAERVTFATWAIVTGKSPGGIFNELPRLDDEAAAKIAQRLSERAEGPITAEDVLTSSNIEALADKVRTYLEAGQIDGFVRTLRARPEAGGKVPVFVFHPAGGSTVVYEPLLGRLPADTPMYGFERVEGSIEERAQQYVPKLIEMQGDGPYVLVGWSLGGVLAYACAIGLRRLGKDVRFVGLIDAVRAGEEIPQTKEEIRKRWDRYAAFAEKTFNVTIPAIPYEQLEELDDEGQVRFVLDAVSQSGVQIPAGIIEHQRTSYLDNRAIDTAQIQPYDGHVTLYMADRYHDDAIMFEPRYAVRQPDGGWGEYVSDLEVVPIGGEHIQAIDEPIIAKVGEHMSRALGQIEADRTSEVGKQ
UniProt P9WPC5, whole entry: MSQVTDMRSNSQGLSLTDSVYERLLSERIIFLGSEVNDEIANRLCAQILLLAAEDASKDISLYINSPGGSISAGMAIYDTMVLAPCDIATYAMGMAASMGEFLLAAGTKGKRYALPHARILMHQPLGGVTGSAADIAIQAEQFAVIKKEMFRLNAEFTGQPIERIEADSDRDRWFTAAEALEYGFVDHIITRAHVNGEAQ
UniProt P9WPC3, whole entry partner: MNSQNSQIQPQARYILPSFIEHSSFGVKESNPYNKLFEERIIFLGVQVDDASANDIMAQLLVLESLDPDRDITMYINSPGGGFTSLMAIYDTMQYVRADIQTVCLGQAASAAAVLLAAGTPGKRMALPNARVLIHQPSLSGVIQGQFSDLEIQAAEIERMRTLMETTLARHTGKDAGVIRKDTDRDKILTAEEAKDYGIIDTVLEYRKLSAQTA
UniProt Q4DA54, 1-478: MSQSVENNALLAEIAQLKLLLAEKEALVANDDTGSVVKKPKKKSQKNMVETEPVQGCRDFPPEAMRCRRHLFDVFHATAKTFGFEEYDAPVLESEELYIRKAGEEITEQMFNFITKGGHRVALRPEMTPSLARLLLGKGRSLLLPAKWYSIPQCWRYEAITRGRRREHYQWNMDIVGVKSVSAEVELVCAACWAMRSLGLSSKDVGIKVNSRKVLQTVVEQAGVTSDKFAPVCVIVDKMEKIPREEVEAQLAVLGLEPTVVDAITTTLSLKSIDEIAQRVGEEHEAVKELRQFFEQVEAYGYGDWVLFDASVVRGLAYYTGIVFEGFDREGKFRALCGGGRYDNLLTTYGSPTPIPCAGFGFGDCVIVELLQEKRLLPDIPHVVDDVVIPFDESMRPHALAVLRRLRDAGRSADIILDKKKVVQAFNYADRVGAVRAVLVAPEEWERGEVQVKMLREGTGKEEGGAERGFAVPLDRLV

Source: ChEMBL document CHEMBL3988442, “University of Dundee, Small-Polar-MMV Screening Library” (2021).

CoaBC: 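Enzyme assay of CoaBC with a phosphate dye (Biomol Green) read at 650 nm. Target: Coenzyme A biosynthesis protein CoaBC, Mycobacterium tuberculosis (UniProt P9WNZ1). Concentration: 30 µM. Direction is inferred from only a few compounds that gave an IC50; most scored high, so higher reads as stronger inhibition. Most strong results did not repeat in a second test. Of about 67,000 compounds tested this way, about 40 (0.06%) reached 50% or more in at least one test.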
Leishmania in macrophages: 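Cell assay of Leishmania donovani living inside macrophages; the read-out is not stated. Compounds at 30 µM. The record gives no direction; compounds that gave an IC50 in retests scored well above the rest, so higher reads as stronger inhibition. Size under these conditions: about 69,000 compounds, about 1,000 of them at 50% or above in at least one test.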
Pks13 thioesterase: 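Polyketide synthase Pks13, Mycobacterium tuberculosis (UniProt I6X8D2). Enzyme assay of the thioesterase domain of polyketide synthase 13; the read-out is not stated. Compounds at 30 µM. The record gives no direction; the compounds picked for IC50 retests had high values, so higher reads as stronger inhibition. Of about 67,000 compounds tested this way, about 300 (0.46%) reached 50% or more in at least one test.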
ClpP1P2: 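Protease assay of ClpP1P2, read by the AMC dye that it sets free. Target: ClpP1P2, Mycobacterium tuberculosis (UniProt P9WPC5 and UniProt P9WPC3). Tested at 50 µM. Higher reads as stronger inhibition, judged from the few compounds that gave an IC50. Most other retested compounds had strongly negative values. Size under these conditions: about 69,000 compounds, about 10 of them at 50% or above in at least one test.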
TcHisRS: 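Histidine-tRNA ligase, Trypanosoma cruzi CL Brener (UniProt Q4DA54). Enzyme assay of histidyl-tRNA synthetase; the read-out is not stated. Tested at 30 µM. Direction is inferred from retests: higher values go with stronger inhibition. Of about 69,000 compounds tested this way, about 31 (0.045%) reached 50% or more in at least one test.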

Values are the deposited “Percent Effect”, in %.
How 0% and 100% were set is not recorded. Most values in the screen are low, and negative values occur.
The compounds are a random part of those screened.
Two or more numbers in one place are separate tests of the same structure; such repeats can differ widely.

- CN(C)C(=O)N1CCn2nc(CNC(=O)CCc3ccccn3)cc2C1 : CoaBC: 4.078%; Leishmania in macrophages: -6.639%; Pks13 thioesterase: -15.09%; ClpP1P2: 8.422%; TcHisRS: 1.98%
- CCOCC(=O)N1CCC(C(O)c2ccc(F)cc2)CC1 (stereo not drawn) : CoaBC: 4.783%; Leishmania in macrophages: 26.74%; Pks13 thioesterase: 0.7577%; ClpP1P2: 13.79%; TcHisRS: 4.813%
- O=C(O)C(F)(F)F.[H][C@]12CC[C@@]3(N=C(C)N(CC4CC4)C3=O)[C@@]1([H])CN(Cc1ccccc1F)C2 : Leishmania in macrophages: 16.75%
- COCCN1C2(CCN(C(=O)c3cccs3)C2)c2ccccc2S1(=O)=O (stereo not drawn) : CoaBC: 8.562%; Leishmania in macrophages: -8.315%; Pks13 thioesterase: -0.4995%; ClpP1P2: -6.004%; TcHisRS: 9.045%
- CNc1cc(C2CCCN2C(=O)c2ccc3oc(=O)n(C)c3c2)ccn1 (stereo not drawn) : CoaBC: 4.581%; Leishmania in macrophages: 29.13%; Pks13 thioesterase: -3.086%; ClpP1P2: 5.673%; TcHisRS: 5.376%
- CCS(=O)(=O)CCN1CCCC1c1noc(C)n1 (stereo not drawn) : CoaBC: 6.21%; Leishmania in macrophages: 10.71%; Pks13 thioesterase: -10.59%; ClpP1P2: -19.2%; TcHisRS: 8.284%
- COc1ncccc1C(=O)N1CC[C@]2(C[C@@H](Oc3cccnc3)CO2)C1 : CoaBC: 0.6369%; Pks13 thioesterase: -6.711%; ClpP1P2: 2.148%; TcHisRS: 4%
- CCOC(=O)CNC(=O)NCc1cc(C)n(-c2ccc(OC)cc2)c1C : CoaBC: -3.291%; Leishmania in macrophages: -6.457% & 13.18%; Pks13 thioesterase: 10.92%; ClpP1P2: -2.065%; TcHisRS: 8.537%
- COCC1CN(Cc2cccc(C#N)c2)Cc2nccn2C1 (stereo not drawn) : CoaBC: -0.1616%; Leishmania in macrophages: 20.19%; Pks13 thioesterase: -12.77%; ClpP1P2: -5.482%; TcHisRS: 9.045%
- CC(=O)Nc1nc(C(=O)NC(C)c2ccc3c(c2)OCCO3)cs1 (stereo not drawn) : CoaBC: 9.487%; Leishmania in macrophages: 13.42%; Pks13 thioesterase: -17.38%; ClpP1P2: 13.73%; TcHisRS: -9.434%
- Fc1cccc(-n2cc(CN3CCCCC3CCn3ccnc3)cn2)c1 (stereo not drawn) : CoaBC: -17.85%; Leishmania in macrophages: 13.75%; Pks13 thioesterase: -20.19%; ClpP1P2: -9.751%; TcHisRS: 8.743%
- CC(=O)c1cnc(NCCCN2CCOCC2)nc1C : CoaBC: 2.265%; Leishmania in macrophages: -32.48%; Pks13 thioesterase: -11.77%; ClpP1P2: 8.086%; TcHisRS: 7.035%
- CCCNC(=O)CCNC(=O)N1CCC(=Cc2ccccc2)CC1 : CoaBC: 12.44%; Leishmania in macrophages: 0.2391%; Pks13 thioesterase: -1.155%; ClpP1P2: -5.843%; TcHisRS: -8.824%
- Cn1cc(C(=O)N2CCN(Cc3ccsc3)CC2)cn1 : CoaBC: 2.155%; Leishmania in macrophages: 18.04%; Pks13 thioesterase: -13.9%; ClpP1P2: -11.95%; TcHisRS: 2.959%
- COc1cccc(CC2CCCN2CC(N)=O)c1 (stereo not drawn) : CoaBC: -10.8%; Leishmania in macrophages: 7.21%; Pks13 thioesterase: -23.84%; ClpP1P2: 2.948%; TcHisRS: 6.897%
- Cc1ccc(C(=O)N2CCN(Cc3cccs3)CC2)n1C : CoaBC: 0.5222%; Leishmania in macrophages: -3.191%; Pks13 thioesterase: -6.966%; ClpP1P2: -27.91%; TcHisRS: 6.78%
- COC(=O)CNC(=O)c1cc(-c2ccccc2)nc2ncnn12 : CoaBC: 8.381%; Leishmania in macrophages: 7.852%; Pks13 thioesterase: -5.096%; ClpP1P2: -6.528%; TcHisRS: 3.509%
- CCN(CC)S(=O)(=O)NCC(O)c1c(Cl)cccc1Cl (stereo not drawn) : CoaBC: -3.125%; Leishmania in macrophages: 62.85%; Pks13 thioesterase: -32.49%; ClpP1P2: -0.3334%; TcHisRS: 8.808%
- COc1ccc(CN2CCO[C@H]3[C@H](OCc4ccncc4)CC[C@@H]32)cc1 : CoaBC: 4.198%; Pks13 thioesterase: -9.886%; ClpP1P2: -13.63%; TcHisRS: 8.466%
- Cn1cc(C(=O)NC(Cn2cccn2)C(C)(C)C)cn1 (stereo not drawn) : CoaBC: 0.6135%; Leishmania in macrophages: 15.43%; Pks13 thioesterase: -1.823%; ClpP1P2: 11.19%; TcHisRS: 4.624%
- COCc1cc(N2CCOC(c3ccc(Cl)c(Cl)c3)C2)ncn1 (stereo not drawn) : CoaBC: -0.8373%; Leishmania in macrophages: 54.26%; Pks13 thioesterase: 0.3295%; ClpP1P2: -6.056%; TcHisRS: 11.59%
- CC(C)C(=O)Nc1ccc(C(O)Cn2nc(-c3cccs3)oc2=O)cc1 (stereo not drawn) : CoaBC: 2.479%; Leishmania in macrophages: -2.395%; Pks13 thioesterase: -4.448%; ClpP1P2: 15.12%; TcHisRS: 3.333%
- CC(=O)N1CCCC(c2ccc(Nc3nc(C)cc(C)n3)cn2)C1 (stereo not drawn) : CoaBC: 10.1%; Leishmania in macrophages: -23.05%; Pks13 thioesterase: -25.04%; ClpP1P2: 8.223%; TcHisRS: 6.011%
- CCOC(=O)[C@]12CCCN(Cc3cccs3)C[C@H]1CN(C(C)C)C2 : CoaBC: 3.273%; Pks13 thioesterase: -0.6779%; ClpP1P2: -15.09%; TcHisRS: 8.38%

The last 3 entries again:

- CC(C)C(=O)Nc1ccc(C(O)Cn2nc(-c3cccs3)oc2=O)cc1 (stereo not drawn) | CoaBC: 2.479%; Leishmania in macrophages: -2.395%; Pks13 thioesterase: -4.448%; ClpP1P2: 15.12%; TcHisRS: 3.333%
- CC(=O)N1CCCC(c2ccc(Nc3nc(C)cc(C)n3)cn2)C1 (stereo not drawn) | CoaBC: 10.1%; Leishmania in macrophages: -23.05%; Pks13 thioesterase: -25.04%; ClpP1P2: 8.223%; TcHisRS: 6.011%
- CCOC(=O)[C@]12CCCN(Cc3cccs3)C[C@H]1CN(C(C)C)C2 | CoaBC: 3.273%; Pks13 thioesterase: -0.6779%; ClpP1P2: -15.09%; TcHisRS: 8.38%